Data reported in US20250099511A1, “PHARMACEUTICAL COMPOSITION FOR PREVENTING OR TREATING CANCER” (ENTEROBIOME INC., priority 2022, published 2025).
For at least one compound, name, drawing or mass did not settle the structure.

Tested on: Faecalibacterium prausnitzii strains of the present invention
Experiment: Antimicrobial susceptibility, summary for all strains
Type: cell-based
Conditions: all Faecalibacterium prausnitzii strains of Table 5

For `COc1c(N2C[C@@H]3CCCN[C@@H]3C2)c(F)cc2c(=O)c(C(=O)O)cn(C3CC3)c12` [MXF, moxifloxacin], the “susceptibility or resistance of all the strains to the antibiotic” value was “resistance”.
